Patent US20030119067A1, “PYK2 related products and methods” (Sugen, Inc., priority 1996, published 2003)
At least one structure is not confirmed: it was looked up by name or label, or the drawing left a doubt. Residues, ends and D or L forms follow the SMILES beside them.

Test system: PYK2
Experiment: Tyrosine phosphorylation of PYK2 in PC12 cells (immunoprecipitation, anti-phosphotyrosine immunoblot)
Format: cell-based, rat
Settings: for tyrosine phosphorylation of PYK-2 in response to the stimulus alone: TPA 1.6 μM 15 min, bradykinin 1 μM 1 min, A23187 2 μM 15 min

Row | Structure (SMILES) | effect on the TPA / bradykinin PYK-2 phosphorylation response in combination | tyrosine phosphorylation of PYK-2 in response to the stimulus alone (PC12 cells, 37° C.) | agonist-induced PYK2 tyrosine phosphorylation after prolonged PMA treatment (PKC down-regulation) (PC12 cells pretreated with 100 nM PMA for 12 h) | agonist-induced PYK2 tyrosine phosphorylation on omission of extracellular calcium (PC12 cells, no extracellular calcium or EGTA present) | tyrosine phosphorylation of PYK2 (PC12 cells, LPA 2.5 mM or bradykinin 1 mM, 3 min, 37° C.) | increase in the phosphorylation state of PYK2 relative to unstimulated cells (PC12 cells, LPA 2.5 mM, bradykinin 1 mM 3 min, PMA 1 mM 10 min, 37° C.) [fold] | tyrosine phosphorylation of PYK2 (quiescent PC12 cells, 37° C., carbachol 1 mM, KCl 75 mM, A23187 6 μM 15 min, bradykinin 1 μM, PMA 1.6 μM)
1 | C=C[C@@]1(C)CC(=O)[C@]2(O)[C@@]3(C)[C@@H](O)CCC(C)(C)[C@@H]3[C@H](O)[C@H](OC(C)=O)[C@@]2(C)O1 [Forskolin, forskolin] | increase the response of TPA | does not give any signal by itself |  |  |  |  | 
2 | NC(N)=NCCC[C@H](NC(=O)[C@H](Cc1ccccc1)NC(=O)[C@@H]1CCCN1C(=O)[C@H](CO)NC(=O)[C@H](Cc1ccccc1)NC(=O)CNC(=O)[C@@H]1CCCN1C(=O)[C@@H]1CCCN1C(=O)[C@@H](N)CCCN=C(N)N)C(=O)O [bradykinin] (H-RPPGFSPFR-OH) |  | undergoes tyrosine phosphorylation | had only a minor effect | not influenced by the omission of extra-cellular calcium | rapid tyrosine phosphorylation of PYK2 | 9 | induces rapid tyrosine phosphorylation of PYK2
